Assay [1] has as its target T1, Taq DNA polymerase (Thermus aquaticus, UniProt P19821 1-832).
T1 construct: also called Taq enzyme; Taq DNA enzyme
Nature of the assay: ELISA on coated Taq, CHO supernatant. A general note: ELISA stands for enzyme-linked immunosorbent assay.

Protein sequences, listed by entry. Tags and fused reporters are not part of them.
UniProt P19821: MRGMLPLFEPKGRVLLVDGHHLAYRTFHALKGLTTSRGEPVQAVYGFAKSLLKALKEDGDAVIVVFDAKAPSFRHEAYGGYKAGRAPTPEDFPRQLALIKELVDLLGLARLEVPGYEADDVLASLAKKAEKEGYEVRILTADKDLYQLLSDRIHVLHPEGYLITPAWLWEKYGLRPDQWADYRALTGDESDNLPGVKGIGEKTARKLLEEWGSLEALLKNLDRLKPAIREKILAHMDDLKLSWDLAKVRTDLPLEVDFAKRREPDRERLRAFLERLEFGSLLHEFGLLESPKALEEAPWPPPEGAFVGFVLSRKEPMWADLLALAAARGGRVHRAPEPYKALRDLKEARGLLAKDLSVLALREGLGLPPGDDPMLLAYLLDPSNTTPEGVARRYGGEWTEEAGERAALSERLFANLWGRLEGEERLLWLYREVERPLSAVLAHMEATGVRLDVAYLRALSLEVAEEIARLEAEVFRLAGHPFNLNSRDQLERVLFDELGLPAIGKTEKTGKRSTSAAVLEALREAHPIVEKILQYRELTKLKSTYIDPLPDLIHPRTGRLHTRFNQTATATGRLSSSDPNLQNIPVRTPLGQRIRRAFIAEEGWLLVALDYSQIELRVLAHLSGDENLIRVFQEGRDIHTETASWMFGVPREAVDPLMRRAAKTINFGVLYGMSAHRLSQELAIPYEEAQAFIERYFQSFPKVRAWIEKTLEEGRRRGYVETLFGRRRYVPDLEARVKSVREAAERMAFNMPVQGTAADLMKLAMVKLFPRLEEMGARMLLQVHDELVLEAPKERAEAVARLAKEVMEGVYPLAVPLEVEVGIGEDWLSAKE

The target in assay [2] is T1, Taq DNA polymerase. The experiment in a line: ELISA and AMC sensor (Tables 2 and 3).

Where a chain is given by its changes, count along the chain named. These are yes or no findings as the source states them, for the method shown. Some results given as binding are weak or reduced against the parent protein; the word gives no strength.

B1: Anti-Taq 2C7 recombinant antibody (WT) (antibody, mouse IgG1, kappa, V domains shown)
VH: QVQLQQPGAELVKPGASVRLSCQTSVDTFSTYYLYWVKQRPGEGLEWIGGVNPTSNPVFDEKFKSKATLTVDTSSSTAYMQLSSLTSVDSAVYYCTRSILRRGYYPDYWGQGTALTVSS
VL: DIQMTQTTSSLSASLGDRVTISCRGSQDIQNYVNWYQQKPDGTIKLLIYFTSRLQSGIPSRFSGSGSGTDYSLTIANLEQEDIATYFCQQDDTIPVTWGAGTKVELKR
notes: Mouse antibody expressed in CHO cells; also called WT antibody; antibody of sample 1
In the case of B1, the binding result with Taq DNA polymerase [1] was “binds”.

B2: Mutation 1 (antibody, V domains shown)
VH: B1 VH with L34I, D60N, P106F
VL: B1 VL with G25A, F50Y, W98F
notes: also called mutation 1 antibody
B2: the binding entry with Taq DNA polymerase [2] is recorded as “binds”.

These data come from patent US20210403601A1 (FAPON BIOTECH, published 2021).
